Assay results from patent US12109179B2, “Pharmaceutical compositions and combinations comprising inhibitors of the androgen receptor and uses thereof” (ESSA Pharma Inc., priority 2019, dated 2024).
At least one structure is not confirmed: it was looked up by name or label, or the drawing left a doubt.

Tested on: reporter constructs regulated by CMV promoter or AP-1 binding sites
Test: Control reporter constructs (CMV promoter, AP-1 binding sites)
Type: cell-based
Excerpt: 2010, and Myung et al., J Clin Invest. 2013.

## O=C1C=CC(=O)c2c(O)cccc21 [juglone]
  inhibitory effects on CMV promoter or AP-1 reporter constructs: No inhibitory effects
